From patent publication US6753345B2, “7-hexanolytaxol and methods for preparing the same” (Hauser, Inc., priority 1998, dated 2004)

System: cell line panel (60 lines, nine disease-related subpanels)
Assay: SRB cytotoxicity screening assay, whole cell line panel (mean values)
Details: over the cell line panel

Row | SMILES | Log10 TGI, Range | Log10 TGI, Delta
1 | CC(=O)O[C@H]1C(=O)[C@@]2(C)[C@H]([C@H](OC(=O)c3ccccc3)[C@]3(O)C[C@H](OC(=O)[C@H](O)[C@@H](NC(=O)c4ccccc4)c4ccccc4)C(C)=C1C3(C)C)[C@]1(OC(C)=O)CO[C@@H]1C[C@@H]2O [Paclitaxel, paclitaxel, reference compound] | 7.20 | –
2 | CCCCCC(=O)O[C@H]1C[C@H]2OC[C@@]2(OC(C)=O)[C@H]2[C@H](OC(=O)c3ccccc3)[C@]3(O)C[C@H](OC(=O)[C@H](O)[C@@H](NC(=O)c4ccccc4)c4ccccc4)C(C)=C([C@@H](OC(C)=O)C(=O)[C@]12C)C3(C)C [7-hexanoyltaxol] | 4.00 | 2.41
